Measurements from patent publication US7851618 (dated 2010).
Ends that are not written are not given here.

Test: general procedure: Fmoc solid-phase peptide synthesis; HMPA-PEGA resin; MSNT, N-methylimidazole (first residue loading)
Conditions: conjugation step

With REEQYCSTYRV the conjugation yield was 64%.
